{"sequences": {"note": "The chains behind the UniProt entries cited, without tags or fusion partners.", "UniProt O64645": "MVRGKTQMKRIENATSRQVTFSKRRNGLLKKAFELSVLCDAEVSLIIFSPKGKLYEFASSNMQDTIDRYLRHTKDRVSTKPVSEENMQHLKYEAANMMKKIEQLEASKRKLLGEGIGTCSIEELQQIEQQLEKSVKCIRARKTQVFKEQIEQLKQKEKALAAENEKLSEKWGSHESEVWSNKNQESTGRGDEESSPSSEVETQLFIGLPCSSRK"}, "source": "paper PMC4507769", "target": "Arabidopsis SUPPRESSOR OF OVEREXPRESSION OF CONSTANS1 (SOC1) (Arabidopsis thaliana) (UniProt O64645)", "experiment": "two-hybrid; GAL4 system; baits in pDEST32 (strain PJ69-4α), preys in pDEST22 (strain PJ69-4a), mated; growth scored on media lacking Trp, Leu and His with 0, 1, 3 and 5 mM 3-amino-1,2,4-triazole, 4 d at 20 °C; reciprocal tests in duplicate for all combinations", "note": "These are yes or no findings as the source states them, for the method shown. Some binding calls cover weakened binding; strength is not graded here."}
{"substance": "Arabidopsis SUPPRESSOR OF OVEREXPRESSION OF CONSTANS1 (SOC1) (from UniProt O64645 1-214)", "values": [{"measurement": "binding", "result": "binds"}]}
